In the supplement of paper PMC12542422:
Where a name gives a salt, the structure may show the parent alone. ± gives the standard deviation of the averaged measurements. Some of the results follow. These are raw signals, not scaled to a control.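 HeLa cells imaged for ribosome-assembly readouts (ENP1 staining with or without export block, or inducible tagged ribosomal protein reporters); machine learning classified each cell's signal location against solvent (DMSO) controls. Hits exceeded the DMSO false-positive mean by five standard deviations, then were visually confirmed; three biological replicates.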

How the values were obtained:
[1] = test system: HeLa K (ENP1 immunofluorescence, +LMB); experiment: fraction of cells with nucleolar or nucleolar/nucleoplasmic ENP1 signal (MainHitrate); higher = more cells with nucleolar/nuclear readout signal (for ENP1 -LMB: less RNAPI inhibition; for +LMB ENP1 and RP reporters: stronger nuclear/nucleolar retention, i.e. ribosome biogenesis defect); details: concentration: 1 µM; treatment time: 6 h; ENP1 +LMB; leptomycin B: 20 nM, last 1.5 h
[2] = test system: HeLa K (ENP1 immunofluorescence, no LMB); experiment: as above; details: concentration: 1 µM; treatment time: 6 h; ENP1 -LMB; leptomycin B: none
[3] = test system: HeLa RPS2-YFP reporter; experiment: fraction of reporter-positive cells with nuclear (nucleolar or nucleolar/nucleoplasmic) RPS2-YFP (MainHitrate); higher = more cells with nucleolar/nuclear readout signal (for ENP1 -LMB: less RNAPI inhibition; for +LMB ENP1 and RP reporters: stronger nuclear/nucleolar retention, i.e. ribosome biogenesis defect); details: concentration: 1 µM; treatment time: 6 h
[4] = test system: HeLa RPL29-GFP reporter; experiment: fraction of reporter-positive cells with nuclear (nucleolar or nucleolar/nucleoplasmic) RPL29-GFP (MainHitrate); higher = more cells with nucleolar/nuclear readout signal (for ENP1 -LMB: less RNAPI inhibition; for +LMB ENP1 and RP reporters: stronger nuclear/nucleolar retention, i.e. ribosome biogenesis defect); details: concentration: 1 µM; treatment time: 6 h

SMILES	fraction [1]	fraction [2]	fraction of reporter-positive cells with nuclear [3]	fraction of reporter-positive cells with nuclear [4]
O=C(NC(Cc1cc(=O)[nH]c2ccccc12)C(=O)O)c1ccc(Cl)cc1 (stereo not drawn) [Rebamipide]	0.143 ± 0.22	0.987 ± 0.023	0.117 ± 0.09	0.225 ± 0.079
CSc1ccc2c(c1)N(CCC1CCCCN1C)c1ccccc1S2 (stereo not drawn) [Thioridazine HCl]	0.256 ± 0.4	0.9967 ± 0.0058	0.168 ± 0.12	0.298 ± 0.22
CCOC(=O)c1ccc(OC(=O)CCCCCNC(=N)N)cc1 [Gabexate mesylate]	0.0698 ± 0.071	0.9973 ± 0.0047	0.118 ± 0.051	0.262 ± 0.073
Nc1ccc(S(=O)(=O)Nc2nccs2)cc1 [Sulfathiazole]	0.0505 ± 0.05	0.987 ± 0.022	0.0762 ± 0.028	0.219 ± 0.033
CC/C(=C(\c1ccccc1)c1ccc(OCCN(C)C)cc1)c1ccccc1 [Tamoxifen Citrate (Nolvadex)]	0.103 ± 0.13	0.989 ± 0.018	0.104 ± 0.09	0.235 ± 0.12
O=C(CCCN1CC=C(n2c(=O)[nH]c3ccccc32)CC1)c1ccc(F)cc1 [Droperidol]	0.064 ± 0.072	0.989 ± 0.02	0.14 ± 0.079	0.212 ± 0.048
CN1CCOC(c2ccccc2)c2ccccc2C1 (stereo not drawn) [Nefopam HCl]	0.0478 ± 0.045	0.985 ± 0.025	0.121 ± 0.094	0.219 ± 0.045
NC12CC3CC(CC(C3)C1)C2 [Amantadine hydrochloride (Symmetrel)]	0.139 ± 0.22	0.985 ± 0.025	0.137 ± 0.084	0.215 ± 0.07
Clc1ccc2nsnc2c1NC1=NCCN1 [Tizanidine HCl]	0.0706 ± 0.07	0.9981 ± 0.0033	0.118 ± 0.067	0.202 ± 0.076
OCCN1C[C@H](O)[C@@H](O)[C@H](O)[C@H]1CO [Miglitol (Glyset)]	0.0354 ± 0.036	0.994 ± 0.01	0.11 ± 0.095	0.212 ± 0.073
COc1ccc2[nH]cc(CCNC(C)=O)c2c1 [Melatonin]	0.099 ± 0.1	0.9985 ± 0.0026	0.101 ± 0.062	0.2 ± 0.06
CC[C@H]1OC(=O)C[C@@H](O)[C@H](C)[C@@H](O[C@@H]2O[C@H](C)[C@@H](O)[C@H](N(C)C)[C@H]2O)[C@@H](CCN2C[C@H](C)C[C@H](C)C2)C[C@@H](C)C(=O)/C=C/C(C)=C/[C@@H]1CO[C@@H]1O[C@H](C)[C@@H](O)[C@@H](OC)[C@H]1OC [Tilmicosin]	0.0842 ± 0.11	0.99 ± 0.017	0.142 ± 0.084	0.213 ± 0.045
Cc1cc2c(s1)Nc1ccccc1N=C2N1CCN(C)CC1 [Olanzapine (Zyprexa)]	0.136 ± 0.19	0.992 ± 0.013	0.112 ± 0.091	0.216 ± 0.071
Cc1ccccc1C(OCCN(C)C)c1ccccc1 (stereo not drawn) [Orphenadrine citrate (Norflex)]	0.159 ± 0.24	0.9967 ± 0.0058	0.119 ± 0.1	0.223 ± 0.059
C[C@H](Cn1cnc2c(N)ncnc21)OCP(=O)(O)O [Tenofovir (Viread)]	0.0927 ± 0.078	0.9983 ± 0.0029	0.113 ± 0.088	0.203 ± 0.077
Nc1nc2ccc(OC(F)(F)F)cc2s1 [Riluzole (Rilutek)]	0.159 ± 0.15	0.9975 ± 0.0043	0.0877 ± 0.056	0.241 ± 0.079
N=C(N)NC(=O)c1nc(Cl)c(N)nc1N [Amiloride hydrochloride dihydrate]	0.117 ± 0.18	0.994 ± 0.011	0.125 ± 0.1	0.223 ± 0.12
Oc1cc(O)c(Cl)cn1 [Gimeracil]	0.161 ± 0.24	0.996 ± 0.0069	0.0776 ± 0.018	0.213 ± 0.087
CCCc1cc(=O)[nH]c(=S)[nH]1 [Propylthiouracil]	0.066 ± 0.072	0.9944 ± 0.0097	0.109 ± 0.079	0.227 ± 0.063
Nc1nc2n[nH]nc2c(=O)[nH]1 [Azaguanine-8]	0.0973 ± 0.14	0.989 ± 0.019	0.109 ± 0.084	0.2 ± 0.077
Cc1cc(=O)[nH]c(=S)[nH]1 [Methylthiouracil]	0.0872 ± 0.12	0.989 ± 0.018	0.0946 ± 0.086	0.234 ± 0.074
Cc1ncc([N+](=O)[O-])n1CCO [Metronidazole (Flagyl)]	0.132 ± 0.19	0.993 ± 0.011	0.171 ± 0.1	0.235 ± 0.11
Clc1ccc(C(Cn2ccnc2)OCc2csc3c(Cl)cccc23)c(Cl)c1 (stereo not drawn) [Sertaconazole nitrate]	0.0685 ± 0.093	0.987 ± 0.023	0.13 ± 0.071	0.206 ± 0.055
C[C@]12C=CC(=O)C=C1CC[C@H]1[C@@H]3C[C@@H](O)[C@](O)(C(=O)CO)[C@@]3(C)C[C@H](O)[C@@]12F [Triamcinolone (Aristocort)]	0.188 ± 0.29	0.9961 ± 0.0067	0.154 ± 0.093	0.274 ± 0.11
Fc1ccc([C@@H]2CCNC[C@H]2COc2ccc3c(c2)OCO3)cc1 [Paroxetine HCl]	0.0695 ± 0.091	0.992 ± 0.015	0.122 ± 0.08	0.194 ± 0.042
O=C1O[C@H]([C@@H](O)CO)C(O)=C1O [Vitamin C (Ascorbic acid)]	0.0553 ± 0.055	0.984 ± 0.028	0.0855 ± 0.06	0.222 ± 0.029
COCCOC(=O)C1=C(C)NC(C)=C(C(=O)OC/C=C/c2ccccc2)C1c1cccc([N+](=O)[O-])c1 (stereo not drawn) [Cilnidipine]	0.0833 ± 0.046	0.9978 ± 0.0038	0.0993 ± 0.094	0.251 ± 0.031

Some of the entries so far, bar-delimited:
SMILES | fraction [1] | fraction [2] | fraction of reporter-positive cells with nuclear [3] | fraction of reporter-positive cells with nuclear [4]
Nc1ccc(S(=O)(=O)Nc2nccs2)cc1 [Sulfathiazole] | 0.0505 ± 0.05 | 0.987 ± 0.022 | 0.0762 ± 0.028 | 0.219 ± 0.033
COc1ccc2[nH]cc(CCNC(C)=O)c2c1 [Melatonin] | 0.099 ± 0.1 | 0.9985 ± 0.0026 | 0.101 ± 0.062 | 0.2 ± 0.06
